Holding throughout (test): proximity labelling
The target of assay [1] is T1, Trbo-TTC1 (human) (UniProt Q99614).
T1 sequence: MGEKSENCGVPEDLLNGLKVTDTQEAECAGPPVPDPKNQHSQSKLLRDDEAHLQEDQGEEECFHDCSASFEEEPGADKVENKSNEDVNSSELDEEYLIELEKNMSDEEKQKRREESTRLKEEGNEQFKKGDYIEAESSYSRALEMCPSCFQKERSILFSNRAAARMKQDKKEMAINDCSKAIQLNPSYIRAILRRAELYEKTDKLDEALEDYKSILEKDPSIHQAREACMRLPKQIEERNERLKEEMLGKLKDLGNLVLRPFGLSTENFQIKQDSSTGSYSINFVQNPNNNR

The chains behind the UniProt entries cited, without tags or fusion partners.
UniProt Q8TD16: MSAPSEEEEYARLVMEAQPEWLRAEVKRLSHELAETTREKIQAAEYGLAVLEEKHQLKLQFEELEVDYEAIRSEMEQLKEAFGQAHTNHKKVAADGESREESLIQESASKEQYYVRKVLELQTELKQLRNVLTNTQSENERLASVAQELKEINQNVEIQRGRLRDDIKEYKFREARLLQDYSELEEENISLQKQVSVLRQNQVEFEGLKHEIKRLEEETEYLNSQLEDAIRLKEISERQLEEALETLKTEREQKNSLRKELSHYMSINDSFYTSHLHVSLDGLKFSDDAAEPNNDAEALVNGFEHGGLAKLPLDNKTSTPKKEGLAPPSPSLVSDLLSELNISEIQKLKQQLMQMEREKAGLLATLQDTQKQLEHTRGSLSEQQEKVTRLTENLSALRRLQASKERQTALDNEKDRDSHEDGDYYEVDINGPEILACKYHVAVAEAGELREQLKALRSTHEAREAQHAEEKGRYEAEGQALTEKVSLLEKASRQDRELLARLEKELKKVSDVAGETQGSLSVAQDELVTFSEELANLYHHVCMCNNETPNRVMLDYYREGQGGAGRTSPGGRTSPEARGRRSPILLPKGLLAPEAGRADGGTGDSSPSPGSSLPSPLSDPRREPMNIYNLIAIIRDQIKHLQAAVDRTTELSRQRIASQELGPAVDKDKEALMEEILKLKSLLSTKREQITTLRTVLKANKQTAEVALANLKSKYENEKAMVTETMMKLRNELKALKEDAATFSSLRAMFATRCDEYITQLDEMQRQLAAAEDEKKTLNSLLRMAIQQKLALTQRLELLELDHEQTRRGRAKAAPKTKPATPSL
UniProt P37276: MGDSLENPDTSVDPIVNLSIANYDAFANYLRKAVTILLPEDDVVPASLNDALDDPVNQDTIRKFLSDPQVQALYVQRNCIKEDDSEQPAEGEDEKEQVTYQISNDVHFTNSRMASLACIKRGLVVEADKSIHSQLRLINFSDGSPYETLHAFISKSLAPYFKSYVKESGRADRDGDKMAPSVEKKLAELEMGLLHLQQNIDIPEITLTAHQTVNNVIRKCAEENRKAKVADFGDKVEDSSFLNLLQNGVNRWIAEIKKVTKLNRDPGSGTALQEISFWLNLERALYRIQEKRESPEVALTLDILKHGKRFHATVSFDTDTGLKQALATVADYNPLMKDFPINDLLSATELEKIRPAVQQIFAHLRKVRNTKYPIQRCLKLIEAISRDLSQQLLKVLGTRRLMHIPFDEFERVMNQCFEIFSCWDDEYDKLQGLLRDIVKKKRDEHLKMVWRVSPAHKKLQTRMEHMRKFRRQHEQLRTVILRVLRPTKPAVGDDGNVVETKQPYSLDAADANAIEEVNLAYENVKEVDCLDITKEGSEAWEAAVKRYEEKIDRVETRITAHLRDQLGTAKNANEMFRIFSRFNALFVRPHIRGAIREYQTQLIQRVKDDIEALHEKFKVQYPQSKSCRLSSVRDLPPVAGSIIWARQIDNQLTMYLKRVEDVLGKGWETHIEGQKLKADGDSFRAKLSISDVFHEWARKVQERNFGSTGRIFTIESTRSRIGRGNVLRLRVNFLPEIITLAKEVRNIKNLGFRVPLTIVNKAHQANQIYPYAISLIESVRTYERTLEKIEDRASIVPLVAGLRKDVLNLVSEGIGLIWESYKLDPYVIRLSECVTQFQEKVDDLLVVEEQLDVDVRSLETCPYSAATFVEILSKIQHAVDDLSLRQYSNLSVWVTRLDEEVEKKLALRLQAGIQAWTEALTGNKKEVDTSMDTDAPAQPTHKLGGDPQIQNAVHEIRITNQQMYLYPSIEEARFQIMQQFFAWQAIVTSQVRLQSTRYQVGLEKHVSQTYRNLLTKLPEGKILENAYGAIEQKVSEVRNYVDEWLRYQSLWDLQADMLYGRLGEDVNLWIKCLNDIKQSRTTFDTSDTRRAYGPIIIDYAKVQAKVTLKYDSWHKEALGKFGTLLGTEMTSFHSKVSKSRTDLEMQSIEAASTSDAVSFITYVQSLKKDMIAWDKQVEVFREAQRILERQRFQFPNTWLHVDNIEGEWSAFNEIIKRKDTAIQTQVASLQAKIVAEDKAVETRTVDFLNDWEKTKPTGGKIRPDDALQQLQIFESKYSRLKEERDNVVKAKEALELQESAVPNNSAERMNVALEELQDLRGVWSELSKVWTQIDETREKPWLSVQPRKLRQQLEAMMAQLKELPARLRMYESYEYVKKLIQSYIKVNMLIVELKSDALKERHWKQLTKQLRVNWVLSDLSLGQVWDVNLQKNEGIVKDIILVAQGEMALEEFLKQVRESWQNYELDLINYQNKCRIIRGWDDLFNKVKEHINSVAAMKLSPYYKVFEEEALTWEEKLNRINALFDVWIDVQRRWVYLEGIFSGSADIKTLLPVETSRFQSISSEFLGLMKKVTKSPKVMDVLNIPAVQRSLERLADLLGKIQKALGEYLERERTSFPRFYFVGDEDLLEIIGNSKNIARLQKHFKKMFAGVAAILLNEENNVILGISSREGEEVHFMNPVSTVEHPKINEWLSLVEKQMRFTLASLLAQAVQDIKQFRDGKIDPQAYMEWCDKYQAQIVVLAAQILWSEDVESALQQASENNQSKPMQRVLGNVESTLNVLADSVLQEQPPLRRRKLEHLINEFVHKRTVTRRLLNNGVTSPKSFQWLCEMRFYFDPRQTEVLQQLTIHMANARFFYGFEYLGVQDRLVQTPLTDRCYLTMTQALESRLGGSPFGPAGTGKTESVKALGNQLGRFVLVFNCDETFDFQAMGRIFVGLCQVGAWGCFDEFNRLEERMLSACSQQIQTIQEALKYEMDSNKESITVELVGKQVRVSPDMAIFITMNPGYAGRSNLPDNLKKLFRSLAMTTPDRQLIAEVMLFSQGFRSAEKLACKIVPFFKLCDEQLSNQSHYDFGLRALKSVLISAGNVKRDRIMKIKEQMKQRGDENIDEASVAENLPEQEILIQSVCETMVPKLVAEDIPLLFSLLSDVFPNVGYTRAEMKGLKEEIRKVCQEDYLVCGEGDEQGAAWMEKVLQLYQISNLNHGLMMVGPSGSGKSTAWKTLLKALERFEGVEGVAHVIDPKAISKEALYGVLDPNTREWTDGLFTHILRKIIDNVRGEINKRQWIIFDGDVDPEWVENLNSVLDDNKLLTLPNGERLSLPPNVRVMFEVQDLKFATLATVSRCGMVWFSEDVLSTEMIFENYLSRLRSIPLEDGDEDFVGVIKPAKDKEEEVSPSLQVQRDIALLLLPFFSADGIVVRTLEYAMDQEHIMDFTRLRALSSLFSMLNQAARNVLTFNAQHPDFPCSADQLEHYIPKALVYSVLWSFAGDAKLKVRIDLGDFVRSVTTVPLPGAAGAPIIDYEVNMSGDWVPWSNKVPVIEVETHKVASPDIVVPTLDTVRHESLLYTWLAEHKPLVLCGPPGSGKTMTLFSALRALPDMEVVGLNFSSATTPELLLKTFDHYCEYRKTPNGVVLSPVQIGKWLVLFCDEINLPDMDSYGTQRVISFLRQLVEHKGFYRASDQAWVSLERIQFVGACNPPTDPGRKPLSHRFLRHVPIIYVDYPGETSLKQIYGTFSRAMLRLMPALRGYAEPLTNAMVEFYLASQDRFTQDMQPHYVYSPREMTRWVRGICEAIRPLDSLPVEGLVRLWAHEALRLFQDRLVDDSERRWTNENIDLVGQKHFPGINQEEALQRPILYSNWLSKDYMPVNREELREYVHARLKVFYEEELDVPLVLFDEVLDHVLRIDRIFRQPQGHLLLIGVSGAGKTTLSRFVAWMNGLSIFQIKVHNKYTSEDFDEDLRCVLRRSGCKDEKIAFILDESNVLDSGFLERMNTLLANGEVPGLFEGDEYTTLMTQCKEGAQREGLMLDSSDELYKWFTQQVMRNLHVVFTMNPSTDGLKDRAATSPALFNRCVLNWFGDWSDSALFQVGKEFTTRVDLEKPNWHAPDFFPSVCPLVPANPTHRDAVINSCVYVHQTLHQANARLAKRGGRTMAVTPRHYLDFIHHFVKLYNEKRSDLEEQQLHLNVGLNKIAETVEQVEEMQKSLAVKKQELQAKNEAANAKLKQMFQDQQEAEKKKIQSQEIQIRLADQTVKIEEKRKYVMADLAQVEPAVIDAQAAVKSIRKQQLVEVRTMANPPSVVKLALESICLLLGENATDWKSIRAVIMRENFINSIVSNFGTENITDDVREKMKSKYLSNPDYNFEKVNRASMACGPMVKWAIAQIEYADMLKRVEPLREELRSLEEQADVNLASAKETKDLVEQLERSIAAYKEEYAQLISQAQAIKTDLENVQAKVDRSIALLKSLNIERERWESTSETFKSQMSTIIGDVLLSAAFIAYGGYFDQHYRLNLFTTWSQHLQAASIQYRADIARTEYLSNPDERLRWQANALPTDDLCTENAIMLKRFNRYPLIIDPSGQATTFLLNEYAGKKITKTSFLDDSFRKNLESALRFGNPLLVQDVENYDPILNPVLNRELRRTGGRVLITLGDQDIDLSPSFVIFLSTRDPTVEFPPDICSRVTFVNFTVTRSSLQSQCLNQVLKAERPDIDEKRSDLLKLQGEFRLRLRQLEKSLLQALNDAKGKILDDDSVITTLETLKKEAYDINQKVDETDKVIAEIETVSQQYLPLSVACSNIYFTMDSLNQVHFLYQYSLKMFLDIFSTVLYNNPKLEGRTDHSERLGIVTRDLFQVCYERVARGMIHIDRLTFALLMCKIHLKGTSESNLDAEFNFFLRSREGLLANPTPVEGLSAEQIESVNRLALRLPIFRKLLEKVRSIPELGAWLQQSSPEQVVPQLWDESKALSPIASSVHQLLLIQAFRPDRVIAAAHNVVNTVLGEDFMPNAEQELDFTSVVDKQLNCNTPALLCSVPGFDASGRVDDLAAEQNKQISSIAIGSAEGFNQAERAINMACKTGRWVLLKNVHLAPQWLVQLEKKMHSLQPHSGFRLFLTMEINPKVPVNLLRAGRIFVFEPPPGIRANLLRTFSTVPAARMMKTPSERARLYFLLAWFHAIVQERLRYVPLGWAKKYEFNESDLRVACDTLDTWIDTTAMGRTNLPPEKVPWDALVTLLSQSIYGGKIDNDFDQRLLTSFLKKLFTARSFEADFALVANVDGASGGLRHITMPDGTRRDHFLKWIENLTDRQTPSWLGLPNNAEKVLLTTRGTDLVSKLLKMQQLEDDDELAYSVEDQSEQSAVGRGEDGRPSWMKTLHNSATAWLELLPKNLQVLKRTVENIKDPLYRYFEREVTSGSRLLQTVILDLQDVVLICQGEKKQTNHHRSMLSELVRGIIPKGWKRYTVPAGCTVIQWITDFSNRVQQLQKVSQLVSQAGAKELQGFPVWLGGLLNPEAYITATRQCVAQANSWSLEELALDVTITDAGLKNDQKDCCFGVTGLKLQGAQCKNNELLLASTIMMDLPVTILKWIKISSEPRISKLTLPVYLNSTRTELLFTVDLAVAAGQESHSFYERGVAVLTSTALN
UniProt Q24117: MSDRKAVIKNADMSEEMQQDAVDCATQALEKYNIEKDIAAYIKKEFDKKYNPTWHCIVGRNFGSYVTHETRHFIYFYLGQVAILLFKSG
UniProt P02828: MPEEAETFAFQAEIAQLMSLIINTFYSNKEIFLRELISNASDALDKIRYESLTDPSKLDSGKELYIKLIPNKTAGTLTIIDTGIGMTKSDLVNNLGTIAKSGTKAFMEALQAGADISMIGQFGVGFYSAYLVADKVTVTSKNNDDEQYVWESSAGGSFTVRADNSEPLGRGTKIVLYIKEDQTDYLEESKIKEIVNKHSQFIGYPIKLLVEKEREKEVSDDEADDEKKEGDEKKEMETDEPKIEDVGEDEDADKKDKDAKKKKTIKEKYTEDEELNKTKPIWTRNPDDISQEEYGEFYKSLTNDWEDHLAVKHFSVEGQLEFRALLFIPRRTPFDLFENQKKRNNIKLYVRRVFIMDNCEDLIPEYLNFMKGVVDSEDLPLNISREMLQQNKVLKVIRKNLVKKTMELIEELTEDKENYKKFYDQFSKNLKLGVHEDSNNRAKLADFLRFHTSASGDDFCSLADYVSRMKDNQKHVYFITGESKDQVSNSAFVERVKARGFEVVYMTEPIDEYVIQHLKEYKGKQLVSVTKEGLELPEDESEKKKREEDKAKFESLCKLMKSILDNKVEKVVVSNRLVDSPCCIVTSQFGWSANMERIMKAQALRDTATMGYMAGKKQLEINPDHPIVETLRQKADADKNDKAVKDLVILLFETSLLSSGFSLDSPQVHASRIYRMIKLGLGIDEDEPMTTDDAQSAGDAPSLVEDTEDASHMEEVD

The target in assay [2] is T2, Egalitarian tagged at its C-terminal end with TurboID (Egl-Trbo) (Drosophila melanogaster) (UniProt Q9W1K4).
T2 sequence: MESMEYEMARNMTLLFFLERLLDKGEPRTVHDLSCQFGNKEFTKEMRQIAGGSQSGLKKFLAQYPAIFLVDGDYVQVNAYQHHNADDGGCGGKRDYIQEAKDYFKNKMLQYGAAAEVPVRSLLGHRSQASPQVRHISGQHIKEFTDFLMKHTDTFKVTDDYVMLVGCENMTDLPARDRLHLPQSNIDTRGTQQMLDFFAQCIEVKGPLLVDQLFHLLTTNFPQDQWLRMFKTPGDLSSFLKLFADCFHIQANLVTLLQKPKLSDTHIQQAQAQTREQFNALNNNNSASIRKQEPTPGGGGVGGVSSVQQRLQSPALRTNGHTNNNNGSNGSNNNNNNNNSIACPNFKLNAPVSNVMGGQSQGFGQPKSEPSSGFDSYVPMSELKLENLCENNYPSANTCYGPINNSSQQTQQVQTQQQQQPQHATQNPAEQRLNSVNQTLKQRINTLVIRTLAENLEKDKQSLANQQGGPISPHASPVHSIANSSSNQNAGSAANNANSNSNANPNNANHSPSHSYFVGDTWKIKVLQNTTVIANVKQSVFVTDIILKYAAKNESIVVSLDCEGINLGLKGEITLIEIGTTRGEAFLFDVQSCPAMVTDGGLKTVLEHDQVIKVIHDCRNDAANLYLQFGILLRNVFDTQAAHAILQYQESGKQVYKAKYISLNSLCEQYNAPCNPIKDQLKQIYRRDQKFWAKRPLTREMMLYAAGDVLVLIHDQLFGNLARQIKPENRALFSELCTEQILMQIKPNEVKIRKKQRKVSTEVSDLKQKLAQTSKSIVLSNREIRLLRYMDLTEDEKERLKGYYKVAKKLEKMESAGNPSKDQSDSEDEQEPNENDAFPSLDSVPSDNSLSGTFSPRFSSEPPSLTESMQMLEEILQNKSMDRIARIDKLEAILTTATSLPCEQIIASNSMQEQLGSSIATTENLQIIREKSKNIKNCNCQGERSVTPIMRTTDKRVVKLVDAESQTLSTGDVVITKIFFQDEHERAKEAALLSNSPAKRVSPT

In assay [3] the target is T3, GFP-Me31b (Drosophila melanogaster) (UniProt P23128).
T3 sequence: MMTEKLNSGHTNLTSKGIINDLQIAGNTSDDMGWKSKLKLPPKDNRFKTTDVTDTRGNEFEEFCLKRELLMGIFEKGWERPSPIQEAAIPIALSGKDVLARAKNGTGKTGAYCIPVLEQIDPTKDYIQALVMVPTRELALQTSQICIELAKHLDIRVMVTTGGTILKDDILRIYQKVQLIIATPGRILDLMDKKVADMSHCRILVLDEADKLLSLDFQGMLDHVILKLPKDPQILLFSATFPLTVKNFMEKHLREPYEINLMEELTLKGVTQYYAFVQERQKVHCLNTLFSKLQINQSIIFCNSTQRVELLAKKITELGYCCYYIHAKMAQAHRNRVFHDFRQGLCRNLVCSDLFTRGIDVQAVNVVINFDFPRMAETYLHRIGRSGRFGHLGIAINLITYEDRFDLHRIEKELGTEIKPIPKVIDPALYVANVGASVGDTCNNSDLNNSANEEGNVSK

Assay [4] has as its target GFP-dTtc1 (Drosophila melanogaster) (UniProt Q9VEV3).
Assay [5] deals with T2, Egalitarian tagged at its C-terminal end with TurboID (Egl-Trbo) (Drosophila melanogaster). This is another data set of the same source.
In assay [6] the target is GFP-dTtc1 (Drosophila melanogaster) (UniProt Q9VEV3). The source holds these as a separate data set.

Where two headings read alike, the source gives them in different places. No constants are given. Whether binding was seen depends on the method and setting. Binding seen in cells or lysates may run through a third protein. These calls come from enrichment with a bait or labelling near it, and not all partners need be listed. For some of these results: Where a sequence is shown, tags or fusion partners need not be part of it.

BicD2 (from UniProt Q8TD16 1-824): the binding result in assay [1] is recorded as “binds”. As for “Clathin heavy chain (Chc) (from UniProt P29742 1-1678)”, the binding entry in assay [2] is given as “binds”. In the case of “Dynein heavy chain (Dhc) (from UniProt P37276 1-4639)”, the binding result in assay [2] is reported as “binds”.

In the case of “Dynein light chain (Dlc) (from UniProt Q24117 1-89)”, in assay [2], the binding result was “binds”. As for “Egalitarian (Egl) (from UniProt Q9W1K4 1-1004)”, in assay [3], the binding result is “binds”.

With Hsp83 (from UniProt P02828 1-717), in assay [4], the binding entry is listed as “binds”. Turning to dTtc1 (CG14894) (from UniProt Q9VEV3), the binding result in assay [2] is listed as “binds”.

B1: Vap33 (protein, UniProt Q9W4N8 1-269)
chain: MSKSLFDLPLTIEPEHELRFVGPFTRPVVTIMTLRNNSALPLVFKIKTTAPKRYCVRPNIGKIIPFRSTQVEICLQPFVYDQQEKNKHKFMVQSVLAPMDADLSDLNKLWKDLEPEQLMDAKLKCVFEMPTAEANAENTSGGGAVGGGTGAAGGGSAGANTSSASAEALESKPKLSSEDKFKPSNLLETSESLDLLSGEIKALRECNIELRRENLHLKDQITRFRSSPAVKQVNEPYAPVLAEKQIPVFYIAVAIAAAIVSLLLGKFFL
B1: the binding result in assay [5] and in assay [6] was “binds” each time.

B2: Me31b (protein, UniProt P23128 1-459)
chain: MMTEKLNSGHTNLTSKGIINDLQIAGNTSDDMGWKSKLKLPPKDNRFKTTDVTDTRGNEFEEFCLKRELLMGIFEKGWERPSPIQEAAIPIALSGKDVLARAKNGTGKTGAYCIPVLEQIDPTKDYIQALVMVPTRELALQTSQICIELAKHLDIRVMVTTGGTILKDDILRIYQKVQLIIATPGRILDLMDKKVADMSHCRILVLDEADKLLSLDFQGMLDHVILKLPKDPQILLFSATFPLTVKNFMEKHLREPYEINLMEELTLKGVTQYYAFVQERQKVHCLNTLFSKLQINQSIIFCNSTQRVELLAKKITELGYCCYYIHAKMAQAHRNRVFHDFRQGLCRNLVCSDLFTRGIDVQAVNVVINFDFPRMAETYLHRIGRSGRFGHLGIAINLITYEDRFDLHRIEKELGTEIKPIPKVIDPALYVANVGASVGDTCNNSDLNNSANEEGNVSK
With B2, in assay [5], the binding entry is given as “binds”.

The values above are taken from doi:10.1101/2021.07.01.450794.
